# Some of the results follow. Hit calls seldom repeat between salt and free forms of one compound.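 In K562 cells expressing nanoluciferase-fused kinases, luminescence was recorded at 4 h intervals between 2 and 18 h, normalized as percent of control with DMSO at 100% and a positive control at 0%. A significant (2 sigma) signal drop marks a time point as decreased. The authors' rule for a hit is not shown and takes in more than the number of time points.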
# The chains behind the UniProt entries cited, without tags or fusion partners. Where a name states a change or a piece, a line headed by the entry shows the natural chain unless it says otherwise.
# UniProt P50613: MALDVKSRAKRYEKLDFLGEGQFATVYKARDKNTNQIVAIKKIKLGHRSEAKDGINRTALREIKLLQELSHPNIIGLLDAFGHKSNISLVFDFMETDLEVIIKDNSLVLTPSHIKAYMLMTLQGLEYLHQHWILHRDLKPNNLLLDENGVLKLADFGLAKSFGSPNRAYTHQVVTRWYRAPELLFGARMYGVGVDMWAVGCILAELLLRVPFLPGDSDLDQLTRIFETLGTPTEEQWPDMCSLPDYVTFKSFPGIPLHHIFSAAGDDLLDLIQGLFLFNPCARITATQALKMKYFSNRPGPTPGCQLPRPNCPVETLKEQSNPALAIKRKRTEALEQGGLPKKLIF
# UniProt P50750, whole entry: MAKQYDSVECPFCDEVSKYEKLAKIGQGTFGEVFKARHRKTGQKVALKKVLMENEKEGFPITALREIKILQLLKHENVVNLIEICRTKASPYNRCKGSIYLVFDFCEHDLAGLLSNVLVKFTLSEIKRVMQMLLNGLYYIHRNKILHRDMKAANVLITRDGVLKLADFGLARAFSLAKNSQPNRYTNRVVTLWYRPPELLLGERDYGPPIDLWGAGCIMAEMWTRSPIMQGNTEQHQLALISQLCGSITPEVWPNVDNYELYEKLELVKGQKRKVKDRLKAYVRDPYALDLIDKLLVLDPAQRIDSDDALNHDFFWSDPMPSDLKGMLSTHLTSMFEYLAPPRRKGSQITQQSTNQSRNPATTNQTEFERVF
# UniProt O96017, whole entry: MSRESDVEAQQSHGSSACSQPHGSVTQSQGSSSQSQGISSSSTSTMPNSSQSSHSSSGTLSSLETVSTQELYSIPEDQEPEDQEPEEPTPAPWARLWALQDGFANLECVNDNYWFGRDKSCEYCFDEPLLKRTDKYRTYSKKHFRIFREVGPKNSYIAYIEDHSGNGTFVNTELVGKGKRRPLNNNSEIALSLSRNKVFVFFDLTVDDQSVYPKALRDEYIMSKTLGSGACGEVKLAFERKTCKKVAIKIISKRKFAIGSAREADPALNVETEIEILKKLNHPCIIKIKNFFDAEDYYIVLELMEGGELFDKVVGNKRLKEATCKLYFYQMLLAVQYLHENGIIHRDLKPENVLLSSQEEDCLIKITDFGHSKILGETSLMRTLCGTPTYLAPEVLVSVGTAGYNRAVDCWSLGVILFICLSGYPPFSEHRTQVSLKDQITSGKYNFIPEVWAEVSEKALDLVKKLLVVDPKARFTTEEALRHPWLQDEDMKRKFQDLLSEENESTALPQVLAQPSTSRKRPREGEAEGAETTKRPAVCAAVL
# UniProt P07333, whole entry: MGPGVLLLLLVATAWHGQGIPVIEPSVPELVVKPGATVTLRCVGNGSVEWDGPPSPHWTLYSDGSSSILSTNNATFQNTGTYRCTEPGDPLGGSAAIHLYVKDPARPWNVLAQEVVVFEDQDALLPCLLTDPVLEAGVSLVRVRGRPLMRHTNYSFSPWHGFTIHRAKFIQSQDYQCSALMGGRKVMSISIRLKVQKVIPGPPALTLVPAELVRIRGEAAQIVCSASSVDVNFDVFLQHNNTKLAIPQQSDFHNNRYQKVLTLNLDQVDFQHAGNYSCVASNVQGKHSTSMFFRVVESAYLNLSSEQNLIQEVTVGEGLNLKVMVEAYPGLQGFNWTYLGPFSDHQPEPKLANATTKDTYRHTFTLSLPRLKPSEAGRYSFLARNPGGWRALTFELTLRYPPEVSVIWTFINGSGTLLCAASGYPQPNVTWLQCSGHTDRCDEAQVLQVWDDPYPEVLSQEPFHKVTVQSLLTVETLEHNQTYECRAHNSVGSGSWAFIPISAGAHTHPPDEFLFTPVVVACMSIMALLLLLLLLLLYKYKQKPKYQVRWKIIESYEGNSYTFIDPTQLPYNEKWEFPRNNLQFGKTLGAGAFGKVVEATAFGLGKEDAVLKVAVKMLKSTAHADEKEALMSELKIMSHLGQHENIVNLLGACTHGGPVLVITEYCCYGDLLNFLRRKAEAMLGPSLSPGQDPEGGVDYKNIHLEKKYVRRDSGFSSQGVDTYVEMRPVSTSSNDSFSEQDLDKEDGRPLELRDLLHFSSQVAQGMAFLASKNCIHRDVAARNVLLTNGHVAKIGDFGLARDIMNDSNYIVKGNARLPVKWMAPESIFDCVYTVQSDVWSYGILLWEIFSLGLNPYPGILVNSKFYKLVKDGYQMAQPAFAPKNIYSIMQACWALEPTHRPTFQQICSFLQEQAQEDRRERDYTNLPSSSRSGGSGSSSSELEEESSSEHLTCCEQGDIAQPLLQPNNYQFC
# UniProt P41240: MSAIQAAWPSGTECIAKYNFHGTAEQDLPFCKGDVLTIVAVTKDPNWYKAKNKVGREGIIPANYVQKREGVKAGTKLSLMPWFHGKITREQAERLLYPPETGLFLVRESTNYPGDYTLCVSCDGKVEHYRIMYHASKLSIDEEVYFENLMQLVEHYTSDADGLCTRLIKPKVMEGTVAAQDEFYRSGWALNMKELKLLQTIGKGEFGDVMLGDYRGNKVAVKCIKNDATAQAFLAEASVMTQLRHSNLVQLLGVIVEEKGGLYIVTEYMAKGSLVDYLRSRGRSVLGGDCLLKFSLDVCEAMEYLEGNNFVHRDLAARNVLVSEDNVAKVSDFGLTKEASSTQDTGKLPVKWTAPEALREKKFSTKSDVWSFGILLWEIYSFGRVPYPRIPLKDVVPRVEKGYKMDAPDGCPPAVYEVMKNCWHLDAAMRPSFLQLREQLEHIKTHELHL
# UniProt P48729: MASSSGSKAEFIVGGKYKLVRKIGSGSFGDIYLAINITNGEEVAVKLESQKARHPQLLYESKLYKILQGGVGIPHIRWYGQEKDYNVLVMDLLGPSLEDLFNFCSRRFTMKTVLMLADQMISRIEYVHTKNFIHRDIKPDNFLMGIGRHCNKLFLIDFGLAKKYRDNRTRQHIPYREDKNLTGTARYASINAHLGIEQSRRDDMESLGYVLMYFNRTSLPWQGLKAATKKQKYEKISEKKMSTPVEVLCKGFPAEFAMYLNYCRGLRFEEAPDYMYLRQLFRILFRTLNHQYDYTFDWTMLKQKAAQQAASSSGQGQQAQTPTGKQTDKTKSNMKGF
# UniProt P48730: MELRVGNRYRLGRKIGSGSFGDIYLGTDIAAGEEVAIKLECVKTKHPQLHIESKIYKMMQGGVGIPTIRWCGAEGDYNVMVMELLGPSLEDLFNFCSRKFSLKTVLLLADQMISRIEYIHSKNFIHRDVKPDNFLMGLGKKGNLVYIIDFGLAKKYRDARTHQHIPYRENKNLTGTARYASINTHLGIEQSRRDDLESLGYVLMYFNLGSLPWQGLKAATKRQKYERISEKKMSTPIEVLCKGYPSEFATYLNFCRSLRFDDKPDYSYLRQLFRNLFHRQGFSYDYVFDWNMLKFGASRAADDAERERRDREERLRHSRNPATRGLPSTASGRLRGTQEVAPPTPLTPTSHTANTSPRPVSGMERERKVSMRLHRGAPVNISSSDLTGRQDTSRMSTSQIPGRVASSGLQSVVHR
# UniProt Q08345: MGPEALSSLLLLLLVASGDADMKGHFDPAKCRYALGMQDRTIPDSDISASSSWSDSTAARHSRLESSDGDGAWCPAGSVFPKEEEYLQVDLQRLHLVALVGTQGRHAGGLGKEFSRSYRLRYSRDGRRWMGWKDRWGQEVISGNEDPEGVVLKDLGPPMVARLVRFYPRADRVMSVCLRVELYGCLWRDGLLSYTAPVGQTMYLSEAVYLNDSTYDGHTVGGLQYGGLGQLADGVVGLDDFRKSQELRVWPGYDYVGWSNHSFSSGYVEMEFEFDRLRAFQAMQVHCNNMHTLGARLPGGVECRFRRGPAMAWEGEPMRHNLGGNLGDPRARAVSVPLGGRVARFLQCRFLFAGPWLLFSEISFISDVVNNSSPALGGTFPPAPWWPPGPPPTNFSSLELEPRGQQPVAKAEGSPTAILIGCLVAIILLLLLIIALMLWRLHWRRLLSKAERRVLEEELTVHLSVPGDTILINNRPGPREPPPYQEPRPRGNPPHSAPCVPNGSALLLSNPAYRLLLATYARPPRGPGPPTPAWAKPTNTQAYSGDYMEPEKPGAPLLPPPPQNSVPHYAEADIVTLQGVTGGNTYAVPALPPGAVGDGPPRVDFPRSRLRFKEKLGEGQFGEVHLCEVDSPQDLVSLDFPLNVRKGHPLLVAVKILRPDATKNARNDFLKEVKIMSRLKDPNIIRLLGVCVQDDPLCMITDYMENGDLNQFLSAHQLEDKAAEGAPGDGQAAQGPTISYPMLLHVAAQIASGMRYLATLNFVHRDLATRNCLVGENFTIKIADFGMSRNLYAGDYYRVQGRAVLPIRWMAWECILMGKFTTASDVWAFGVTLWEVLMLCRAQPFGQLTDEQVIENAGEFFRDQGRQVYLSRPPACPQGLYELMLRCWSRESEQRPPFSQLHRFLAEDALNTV
# UniProt Q9Y463, whole entry, looked up: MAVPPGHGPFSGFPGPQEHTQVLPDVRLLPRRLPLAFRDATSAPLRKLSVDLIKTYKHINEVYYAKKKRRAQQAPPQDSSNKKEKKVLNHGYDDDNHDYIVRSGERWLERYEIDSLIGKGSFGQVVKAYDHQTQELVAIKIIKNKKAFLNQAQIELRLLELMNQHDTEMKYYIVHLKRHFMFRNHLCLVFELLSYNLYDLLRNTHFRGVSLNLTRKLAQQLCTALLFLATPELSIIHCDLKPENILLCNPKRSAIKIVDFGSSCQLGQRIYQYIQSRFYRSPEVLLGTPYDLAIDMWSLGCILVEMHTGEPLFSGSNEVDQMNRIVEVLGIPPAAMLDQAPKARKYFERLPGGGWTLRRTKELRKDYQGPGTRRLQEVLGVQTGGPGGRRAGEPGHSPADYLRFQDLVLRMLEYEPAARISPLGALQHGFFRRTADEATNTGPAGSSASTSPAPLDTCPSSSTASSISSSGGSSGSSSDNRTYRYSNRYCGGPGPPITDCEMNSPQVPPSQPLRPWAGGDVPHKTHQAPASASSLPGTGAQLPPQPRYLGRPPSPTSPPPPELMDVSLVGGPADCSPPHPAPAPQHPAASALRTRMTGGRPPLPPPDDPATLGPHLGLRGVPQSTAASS
# UniProt Q92630: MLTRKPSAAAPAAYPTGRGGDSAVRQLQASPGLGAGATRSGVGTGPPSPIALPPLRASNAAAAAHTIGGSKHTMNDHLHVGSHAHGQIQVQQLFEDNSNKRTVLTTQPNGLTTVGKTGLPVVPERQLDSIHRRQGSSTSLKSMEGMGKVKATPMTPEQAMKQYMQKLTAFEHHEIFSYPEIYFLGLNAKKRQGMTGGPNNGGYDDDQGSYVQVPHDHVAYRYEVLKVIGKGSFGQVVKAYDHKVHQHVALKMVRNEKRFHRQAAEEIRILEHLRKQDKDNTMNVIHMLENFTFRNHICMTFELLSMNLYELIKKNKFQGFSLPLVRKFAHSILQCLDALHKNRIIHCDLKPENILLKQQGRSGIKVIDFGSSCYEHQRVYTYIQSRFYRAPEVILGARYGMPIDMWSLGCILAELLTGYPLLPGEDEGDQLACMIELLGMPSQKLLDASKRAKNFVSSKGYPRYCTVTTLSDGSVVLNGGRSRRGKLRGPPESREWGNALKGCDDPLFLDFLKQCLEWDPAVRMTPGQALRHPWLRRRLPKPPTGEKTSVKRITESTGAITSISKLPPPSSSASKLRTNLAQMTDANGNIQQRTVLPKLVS
# How the values were obtained:
# Experiment in all cases: kinase-Nluc reporter destabilization hit call (1 = scored as downregulated) (binary); higher = compound decreases kinase abundance
# Conditions in all cases: K562; 2-18 h
# CDK7 = CDK7 (UniProt P50613)
# CDK9 = CDK9 (UniProt P50750)
# CHEK2 = CHEK2 (UniProt O96017)
# CSF1R = CSF1R (UniProt P07333)
# CSK = CSK (UniProt P41240)
# CSNK1A1 = CSNK1A1 (UniProt P48729)
# CSNK1D = CSNK1D (UniProt P48730)
# DDR1 = DDR1 (UniProt Q08345)
# DYRK1B = DYRK1B (UniProt Q9Y463)
# DYRK2 = DYRK2 (UniProt Q92630)
SMILES,kinase-Nluc reporter destabilization hit call (CDK7),kinase-Nluc reporter destabilization hit call (CDK9),kinase-Nluc reporter destabilization hit call (CHEK2),kinase-Nluc reporter destabilization hit call (CSF1R),kinase-Nluc reporter destabilization hit call (CSK),kinase-Nluc reporter destabilization hit call (CSNK1A1),kinase-Nluc reporter destabilization hit call (CSNK1D),kinase-Nluc reporter destabilization hit call (DDR1),kinase-Nluc reporter destabilization hit call (DYRK1B),kinase-Nluc reporter destabilization hit call (DYRK2)
COc1cc(-c2cc(OP(=O)(O)O)cc(-c3cc(OC)c(OC)c(OC)c3)c2)cc(OC)c1OC [Stafia-1] (10 µM),inactive: 0,inactive: 0,inactive: 0,inactive: 0,inactive: 0,inactive: 0,inactive: 0,inactive: 0,inactive: 0,inactive: 0
Cc1cccc(/C=N/Nc2cc(N3CCOCC3)n3nc(-c4ccncc4)cc3n2)c1 (10 µM),inactive: 0,inactive: 0,inactive: 0,inactive: 0,inactive: 0,inactive: 0,inactive: 0,inactive: 0,inactive: 0,inactive: 0
COC(=O)/C=C/c1ccccc1 [Methyl cinnamate] (10 µM),inactive: 0,inactive: 0,inactive: 0,inactive: 0,inactive: 0,inactive: 0,inactive: 0,inactive: 0,inactive: 0,inactive: 0
Cc1cc(C(=O)Nc2nc3cccc(Cl)c3n2[C@@H]2CCCCN(C(=O)/C=C/CN(C)C)C2)ccn1 [Nazartinib] (10 µM),inactive: 0,inactive: 0,inactive: 0,inactive: 0,inactive: 0,inactive: 0,inactive: 0,inactive: 0,inactive: 0,inactive: 0
Fc1ccc2[nH]ccc2c1-c1nc(N2CCOCC2)c2sc(CN3CCN(CC4CC4)CC3)cc2n1 (10 µM),inactive: 0,inactive: 0,inactive: 0,inactive: 0,inactive: 0,inactive: 0,inactive: 0,inactive: 0,inactive: 0,inactive: 0
C=CC(=O)Nc1ccc(C(=O)Nc2[nH]nc3c2CN(C(=O)N[C@H](CN(C)C)c2ccccc2)C3(C)C)cc1 (10 µM),inactive: 0,inactive: 0,inactive: 0,inactive: 0,inactive: 0,inactive: 0,inactive: 0,inactive: 0,inactive: 0,inactive: 0
Cc1ccc(-n2nc(C(C)(C)C)cc2NC(=O)Nc2ccc(OCCN3CCOCC3)cc2)cc1 (10 µM),inactive: 0,inactive: 0,inactive: 0,inactive: 0,inactive: 0,inactive: 0,inactive: 0,inactive: 0,inactive: 0,inactive: 0
COc1ccc2c(Oc3ccc4c(C(=O)Nc5ccccc5N)cccc4c3)ccnc2c1 [Chiauranib] (10 µM),inactive: 0,inactive: 0,inactive: 0,active: 1,inactive: 0,inactive: 0,inactive: 0,inactive: 0,inactive: 0,inactive: 0
O=C1Nc2ccc(CN3C(=O)CSC3=O)cc2/C1=C/c1cc(CN2CCOCC2)c[nH]1 (10 µM),inactive: 0,inactive: 0,inactive: 0,inactive: 0,inactive: 0,inactive: 0,inactive: 0,inactive: 0,inactive: 0,inactive: 0
O=C1OC(/C=C/c2ccccc2)=NC/1=C\c1cccnc1 (10 µM),inactive: 0,inactive: 0,inactive: 0,inactive: 0,inactive: 0,inactive: 0,inactive: 0,inactive: 0,inactive: 0,inactive: 0
COc1cc2c(cc1OC)/C(=C/c1ccc(O)cc1)C(=O)N2 (10 µM),inactive: 0,inactive: 0,inactive: 0,inactive: 0,inactive: 0,inactive: 0,inactive: 0,inactive: 0,inactive: 0,inactive: 0
Brc1ccc(CSc2nc3ccccc3o2)cc1 [BMP signaling agonist sb4] (10 µM),inactive: 0,inactive: 0,inactive: 0,inactive: 0,inactive: 0,inactive: 0,inactive: 0,inactive: 0,inactive: 0,inactive: 0
Cc1cc(O)c2c(c1)C(=O)c1cccc(O)c1C2=O [Chrysophanol] (2 µM),inactive: 0,inactive: 0,inactive: 0,inactive: 0,inactive: 0,inactive: 0,inactive: 0,inactive: 0,inactive: 0,inactive: 0
COC(=O)Nc1ccc(-c2nc(N3CCOCC3)c3cnn(C4CCN(Cc5cccnc5)CC4)c3n2)cc1 (10 µM),inactive: 0,inactive: 0,inactive: 0,inactive: 0,inactive: 0,inactive: 0,inactive: 0,inactive: 0,inactive: 0,inactive: 0
Nc1[nH]nc2nc(-c3ccc(NS(=O)(=O)c4cc(Cl)ccc4Cl)cc3)cnc12 (10 µM),inactive: 0,inactive: 0,inactive: 0,inactive: 0,inactive: 0,inactive: 0,inactive: 0,inactive: 0,inactive: 0,inactive: 0
C[C@@H](Nc1ncnc2[nH]c(-c3ccc(O)cc3)cc12)c1ccccc1 (2.5 µM),inactive: 0,inactive: 0,inactive: 0,inactive: 0,inactive: 0,inactive: 0,inactive: 0,inactive: 0,inactive: 0,inactive: 0
c1nn(C2CCOCC2)cc1Nc1ncc2nnn(-c3ccc4cn[nH]c4c3)c2n1 (10 µM),inactive: 0,inactive: 0,inactive: 0,inactive: 0,inactive: 0,inactive: 0,inactive: 0,inactive: 0,inactive: 0,inactive: 0
Cc1cc(Nc2cc(N3CCN(C)CC3)nc(Nc3ccc([N+](=O)[O-])cc3)n2)n[nH]1 (2.5 µM),inactive: 0,inactive: 0,inactive: 0,inactive: 0,inactive: 0,inactive: 0,inactive: 0,inactive: 0,inactive: 0,inactive: 0
Cc1cc(Nc2cc(N)ncn2)c(=O)n2c1C(=O)NC21CCCCC1 [Tomivosertib] (10 µM),inactive: 0,inactive: 0,inactive: 0,inactive: 0,inactive: 0,inactive: 0,inactive: 0,inactive: 0,inactive: 0,inactive: 0
O=C(O)c1cc(N(Cc2ccccc2O)Cc2cc(O)ccc2O)ccc1O [Lavendustin A] (10 µM),inactive: 0,inactive: 0,inactive: 0,inactive: 0,inactive: 0,inactive: 0,inactive: 0,inactive: 0,inactive: 0,inactive: 0
COc1ccc2c3n(c(=NC(=O)c4cccnc4)nc2c1OC)CCN3 (2 µM),inactive: 0,inactive: 0,inactive: 0,inactive: 0,inactive: 0,inactive: 0,inactive: 0,inactive: 0,inactive: 0,inactive: 0
COc1cc(N2CCOCC2)ccc1Nc1ncc(F)c(Nc2ccccc2NS(C)(=O)=O)n1 (10 µM),inactive: 0,inactive: 0,inactive: 0,inactive: 0,inactive: 0,inactive: 0,inactive: 0,inactive: 0,inactive: 0,inactive: 0
O=C1CC[C@H](NC(=O)Cc2ccccc2)C(=O)N1 [Antineoplaston A10] (10 µM),inactive: 0,inactive: 0,inactive: 0,inactive: 0,inactive: 0,inactive: 0,inactive: 0,inactive: 0,inactive: 0,inactive: 0
Nc1nc(NCCNc2ncc(-n3ccnc3)c(-c3ccc(Cl)cc3Cl)n2)ccc1[N+](=O)[O-] (2.5 µM),inactive: 0,inactive: 0,inactive: 0,inactive: 0,inactive: 0,inactive: 0,inactive: 0,inactive: 0,inactive: 0,inactive: 0
COc1cc(F)ccc1-c1ncnc(Nc2cccc(C[S@](C)(=N)=O)c2)n1 [Atuveciclib] (2.5 µM),inactive: 0,inactive: 0,inactive: 0,inactive: 0,inactive: 0,inactive: 0,inactive: 0,inactive: 0,inactive: 0,inactive: 0
O=C(Nc1cccc(-c2nc(-c3ccc(NC(=O)c4cccnc4)cc3Cl)no2)c1)Nc1ccc(NC(=O)C2CC2)c(C(F)(F)F)c1 (2.5 µM),inactive: 0,inactive: 0,inactive: 0,inactive: 0,inactive: 0,inactive: 0,inactive: 0,inactive: 0,inactive: 0,inactive: 0
C=C1C(=O)[C@@]23[C@H](O)C[C@@H]4C(C)(C)C(=O)CC[C@@]4(C)[C@@H]2CC[C@@H]1[C@H]3O [Glaucocalyxin A] (2.5 µM),inactive: 0,inactive: 0,inactive: 0,inactive: 0,inactive: 0,inactive: 0,inactive: 0,inactive: 0,inactive: 0,inactive: 0
CC(Sc1nc2c(cnn2-c2cccc(Cl)c2)c(=O)[nH]1)C(N)=O (stereo not given) (10 µM),inactive: 0,inactive: 0,inactive: 0,inactive: 0,inactive: 0,inactive: 0,inactive: 0,inactive: 0,inactive: 0,inactive: 0
O=C(NCCO)c1cc(C(=O)NCCO)cc(C(=O)NCCO)c1 (10 µM),inactive: 0,inactive: 0,inactive: 0,inactive: 0,inactive: 0,inactive: 0,inactive: 0,inactive: 0,inactive: 0,inactive: 0
O=C(Nc1cc(Cl)cc2c1[nH]c1cnccc12)c1cccnc1 (10 µM),inactive: 0,inactive: 0,inactive: 0,inactive: 0,inactive: 0,inactive: 0,inactive: 0,inactive: 0,inactive: 0,inactive: 0

# Whole records from above. Order of values: kinase-Nluc reporter destabilization hit call (CDK7)	kinase-Nluc reporter destabilization hit call (CDK9)	kinase-Nluc reporter destabilization hit call (CHEK2)	kinase-Nluc reporter destabilization hit call (CSF1R)	kinase-Nluc reporter destabilization hit call (CSK)	kinase-Nluc reporter destabilization hit call (CSNK1A1)	kinase-Nluc reporter destabilization hit call (CSNK1D)	kinase-Nluc reporter destabilization hit call (DDR1)	kinase-Nluc reporter destabilization hit call (DYRK1B)	kinase-Nluc reporter destabilization hit call (DYRK2)
# Nc1nc(NCCNc2ncc(-n3ccnc3)c(-c3ccc(Cl)cc3Cl)n2)ccc1[N+](=O)[O-] (2.5 µM) reads inactive: 0	inactive: 0	inactive: 0	inactive: 0	inactive: 0	inactive: 0	inactive: 0	inactive: 0	inactive: 0	inactive: 0
# COc1ccc2c3n(c(=NC(=O)c4cccnc4)nc2c1OC)CCN3 (2 µM) reads inactive: 0	inactive: 0	inactive: 0	inactive: 0	inactive: 0	inactive: 0	inactive: 0	inactive: 0	inactive: 0	inactive: 0

# — the supplement of paper PMC12823440, “Inhibitors supercharge kinase turnover through native proteolytic circuits” (Nature, 2025)
